In patent US20240142458A1, “FLUORESCENT PROBES FOR QUANTIFICATION OF FREE COPPER” (TECHNISCHE UNIVERSITÄT BERLIN, priority 2020, published 2024):

Experiment: Time-resolved fluorescence (time-correlated single photon counting) in the presence of CuSO4
Details: for fluorescence lifetime (decay time): CuSO4 10-40 μM (above 8 μM), 10 μM probe; for fluorescence lifetime: up to 8 μM CuSO4, 10 μM probe

SMILES	fluorescence lifetime (decay time)	fluorescence lifetime
O=P(O)(O)c1cccc(-c2c3nc(c(-c4cccc(P(=O)(O)O)c4)c4ccc([nH]4)c(-c4cccc(P(=O)(O)O)c4)c4nc(c(-c5cccc(P(=O)(O)O)c5)c5ccc2[nH]5)C=C4)C=C3)c1 [m-H8TPPA, 5,10,15,20-tetrakis [m-phenylphosphonic acid] porphyrin]	1.6 ns	7.7 ns
O=P(O)(O)c1ccc(-c2c3nc(c(-c4ccc(P(=O)(O)O)cc4)c4ccc([nH]4)c(-c4ccc(P(=O)(O)O)cc4)c4nc(c(-c5ccc(P(=O)(O)O)cc5)c5ccc2[nH]5)C=C4)C=C3)cc1 [p-H8TPPA, 5,10,15,20-Tetrakis [p-phenylphosphonic acid] porphyrin]	1.7 ns	8.3 ns
